Counter-ions that a name gives are not always drawn. This is one part of the list. Hit calls seldom repeat between salt and free forms of one compound.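 In K562 cells expressing nanoluciferase-fused kinases, luminescence was recorded at 4 h intervals between 2 and 18 h, normalized as percent of control with DMSO at 100% and a positive control at 0%. A significant (2 sigma) signal drop marks a time point as decreased. The authors' rule for a hit is not shown and takes in more than the number of time points.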
Columns and labels:
Test in all cases: kinase-Nluc reporter destabilization hit call (1 = scored as downregulated) (binary); higher = compound decreases kinase abundance
Settings in all cases: K562; 2-18 h
[1] = target: ABL1 (UniProt P00519)
[2] = target: AKT1 (UniProt P31749)
[3] = target: ALK (UniProt Q9UM73)
[4] = target: ARAF (UniProt P10398)
[5] = target: AURKA (UniProt O14965)
[6] = target: AURKB (UniProt Q96GD4)
[7] = target: AURKC (UniProt Q9UQB9)
[8] = target: BLK (UniProt P51451)
[9] = target: BMX (UniProt P51813)
[10] = target: BRAF (UniProt P15056)
[11] = tested on: BRAF_V600E
[12] = target: BTK (UniProt Q06187)
[13] = target: CAMK2A (UniProt Q9UQM7)
[14] = target: CAMK2G (UniProt Q13555)
[15] = target: CDK10 (UniProt Q15131)
[16] = target: CDK2 (UniProt P24941)
[17] = target: CDK3 (UniProt Q00526)
[18] = target: CDK4 (UniProt P11802)
[19] = target: CDK5 (UniProt Q00535)
[20] = target: CDK6 (UniProt Q00534)

Sequences of proteins named here, by UniProt entry; tags and fusion partners are left off. A change or cut given only in a name is not applied to a line headed by its entry.
UniProt P31749: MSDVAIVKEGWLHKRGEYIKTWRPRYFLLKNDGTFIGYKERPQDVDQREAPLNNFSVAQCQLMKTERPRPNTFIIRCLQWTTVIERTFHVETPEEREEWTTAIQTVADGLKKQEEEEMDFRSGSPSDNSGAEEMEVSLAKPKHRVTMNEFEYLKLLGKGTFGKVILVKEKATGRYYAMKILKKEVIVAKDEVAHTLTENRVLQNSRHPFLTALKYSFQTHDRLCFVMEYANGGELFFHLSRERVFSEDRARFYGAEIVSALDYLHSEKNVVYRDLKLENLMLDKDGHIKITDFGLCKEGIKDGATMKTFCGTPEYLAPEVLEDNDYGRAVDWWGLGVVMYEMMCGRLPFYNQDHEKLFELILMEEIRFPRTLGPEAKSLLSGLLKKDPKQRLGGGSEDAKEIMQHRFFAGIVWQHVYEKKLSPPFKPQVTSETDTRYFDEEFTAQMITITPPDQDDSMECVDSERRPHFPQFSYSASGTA
UniProt P10398: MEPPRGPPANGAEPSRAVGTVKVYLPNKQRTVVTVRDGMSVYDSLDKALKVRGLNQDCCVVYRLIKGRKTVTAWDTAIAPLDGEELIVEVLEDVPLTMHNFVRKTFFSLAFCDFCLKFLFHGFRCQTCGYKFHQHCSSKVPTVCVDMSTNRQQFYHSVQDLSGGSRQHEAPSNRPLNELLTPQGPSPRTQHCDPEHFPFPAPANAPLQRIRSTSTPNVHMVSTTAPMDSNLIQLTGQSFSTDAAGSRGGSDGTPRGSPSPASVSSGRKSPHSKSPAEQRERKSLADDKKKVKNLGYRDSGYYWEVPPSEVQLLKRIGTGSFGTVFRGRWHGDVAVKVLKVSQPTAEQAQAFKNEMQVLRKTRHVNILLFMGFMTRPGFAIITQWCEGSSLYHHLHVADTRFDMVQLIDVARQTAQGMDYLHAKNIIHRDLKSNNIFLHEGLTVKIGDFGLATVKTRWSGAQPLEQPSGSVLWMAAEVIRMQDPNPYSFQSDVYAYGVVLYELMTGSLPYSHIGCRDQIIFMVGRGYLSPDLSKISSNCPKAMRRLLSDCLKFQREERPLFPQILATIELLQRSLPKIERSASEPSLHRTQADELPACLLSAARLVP
UniProt O14965: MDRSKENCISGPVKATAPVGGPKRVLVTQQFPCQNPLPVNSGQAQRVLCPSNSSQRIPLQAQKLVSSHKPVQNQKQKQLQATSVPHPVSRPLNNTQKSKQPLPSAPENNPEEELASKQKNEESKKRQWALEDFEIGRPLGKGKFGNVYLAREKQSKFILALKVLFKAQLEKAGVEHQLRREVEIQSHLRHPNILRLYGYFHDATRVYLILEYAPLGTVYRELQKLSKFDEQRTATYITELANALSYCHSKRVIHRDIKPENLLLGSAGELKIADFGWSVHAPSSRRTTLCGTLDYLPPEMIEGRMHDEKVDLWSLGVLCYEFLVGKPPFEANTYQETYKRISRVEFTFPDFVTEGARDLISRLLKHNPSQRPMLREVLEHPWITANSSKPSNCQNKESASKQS
UniProt Q96GD4, whole entry: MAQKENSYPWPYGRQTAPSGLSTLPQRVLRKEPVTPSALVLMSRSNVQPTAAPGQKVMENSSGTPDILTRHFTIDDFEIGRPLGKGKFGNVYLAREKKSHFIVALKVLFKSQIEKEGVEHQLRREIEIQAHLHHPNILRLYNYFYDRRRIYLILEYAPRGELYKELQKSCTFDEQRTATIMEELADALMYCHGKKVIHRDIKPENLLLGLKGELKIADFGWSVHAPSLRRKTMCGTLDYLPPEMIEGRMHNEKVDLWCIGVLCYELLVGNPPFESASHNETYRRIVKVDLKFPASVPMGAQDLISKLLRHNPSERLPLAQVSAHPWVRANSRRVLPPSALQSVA
UniProt Q9UQB9: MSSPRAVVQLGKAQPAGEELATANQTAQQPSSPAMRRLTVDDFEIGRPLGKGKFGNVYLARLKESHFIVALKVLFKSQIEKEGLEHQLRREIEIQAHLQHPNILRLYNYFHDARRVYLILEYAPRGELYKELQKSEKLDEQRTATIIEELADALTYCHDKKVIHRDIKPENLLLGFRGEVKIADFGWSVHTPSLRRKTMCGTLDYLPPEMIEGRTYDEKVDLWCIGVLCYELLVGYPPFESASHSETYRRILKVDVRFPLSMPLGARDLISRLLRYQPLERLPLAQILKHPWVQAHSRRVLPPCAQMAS
UniProt P51451: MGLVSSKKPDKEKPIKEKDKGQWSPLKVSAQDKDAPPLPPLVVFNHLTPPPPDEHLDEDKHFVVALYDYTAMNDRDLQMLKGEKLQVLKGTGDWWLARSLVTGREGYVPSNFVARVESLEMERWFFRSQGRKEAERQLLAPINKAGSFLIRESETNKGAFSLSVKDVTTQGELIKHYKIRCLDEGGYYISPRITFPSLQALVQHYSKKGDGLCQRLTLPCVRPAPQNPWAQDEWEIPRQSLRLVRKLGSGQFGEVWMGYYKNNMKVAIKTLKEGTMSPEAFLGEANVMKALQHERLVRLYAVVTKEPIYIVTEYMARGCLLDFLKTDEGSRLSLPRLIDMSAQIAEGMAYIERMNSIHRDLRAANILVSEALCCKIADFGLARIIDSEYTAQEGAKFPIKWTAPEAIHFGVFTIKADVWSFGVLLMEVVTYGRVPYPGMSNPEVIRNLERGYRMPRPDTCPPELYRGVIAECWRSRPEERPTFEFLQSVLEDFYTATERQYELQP
UniProt P51813: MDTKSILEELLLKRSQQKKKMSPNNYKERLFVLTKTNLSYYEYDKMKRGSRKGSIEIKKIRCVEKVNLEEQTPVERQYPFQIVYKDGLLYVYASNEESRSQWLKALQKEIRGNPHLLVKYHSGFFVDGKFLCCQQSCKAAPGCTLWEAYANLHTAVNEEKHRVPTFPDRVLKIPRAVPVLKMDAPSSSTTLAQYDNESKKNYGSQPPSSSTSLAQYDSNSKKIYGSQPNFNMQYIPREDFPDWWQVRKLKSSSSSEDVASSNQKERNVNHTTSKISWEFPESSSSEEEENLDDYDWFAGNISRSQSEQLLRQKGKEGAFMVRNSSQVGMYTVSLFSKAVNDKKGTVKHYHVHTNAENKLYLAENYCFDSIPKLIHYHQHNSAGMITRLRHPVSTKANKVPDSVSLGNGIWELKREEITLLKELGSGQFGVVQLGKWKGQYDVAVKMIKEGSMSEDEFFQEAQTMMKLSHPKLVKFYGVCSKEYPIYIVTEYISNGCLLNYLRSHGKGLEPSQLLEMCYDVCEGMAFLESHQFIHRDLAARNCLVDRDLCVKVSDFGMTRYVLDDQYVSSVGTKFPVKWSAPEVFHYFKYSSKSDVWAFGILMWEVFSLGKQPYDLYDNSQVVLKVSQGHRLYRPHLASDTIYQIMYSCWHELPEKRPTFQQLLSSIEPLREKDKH
UniProt P15056, whole entry, looked up: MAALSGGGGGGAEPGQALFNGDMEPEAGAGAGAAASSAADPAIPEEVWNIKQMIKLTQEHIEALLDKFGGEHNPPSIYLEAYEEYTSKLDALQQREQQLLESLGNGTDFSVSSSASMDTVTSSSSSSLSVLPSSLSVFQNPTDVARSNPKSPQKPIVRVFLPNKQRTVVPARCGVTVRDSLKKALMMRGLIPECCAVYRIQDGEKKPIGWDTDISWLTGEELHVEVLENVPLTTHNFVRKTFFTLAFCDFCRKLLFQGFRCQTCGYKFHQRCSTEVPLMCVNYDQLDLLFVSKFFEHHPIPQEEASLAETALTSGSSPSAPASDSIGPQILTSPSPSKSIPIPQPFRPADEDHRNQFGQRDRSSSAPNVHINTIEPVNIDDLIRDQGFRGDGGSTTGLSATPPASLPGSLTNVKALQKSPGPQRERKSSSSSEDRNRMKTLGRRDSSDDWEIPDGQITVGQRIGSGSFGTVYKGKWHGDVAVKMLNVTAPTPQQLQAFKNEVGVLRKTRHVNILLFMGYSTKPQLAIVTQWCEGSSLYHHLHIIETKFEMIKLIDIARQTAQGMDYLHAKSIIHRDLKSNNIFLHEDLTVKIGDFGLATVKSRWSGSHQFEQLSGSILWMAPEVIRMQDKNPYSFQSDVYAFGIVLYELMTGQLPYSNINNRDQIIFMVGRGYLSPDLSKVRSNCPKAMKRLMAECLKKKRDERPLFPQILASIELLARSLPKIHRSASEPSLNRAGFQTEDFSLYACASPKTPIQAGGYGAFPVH
UniProt Q13555: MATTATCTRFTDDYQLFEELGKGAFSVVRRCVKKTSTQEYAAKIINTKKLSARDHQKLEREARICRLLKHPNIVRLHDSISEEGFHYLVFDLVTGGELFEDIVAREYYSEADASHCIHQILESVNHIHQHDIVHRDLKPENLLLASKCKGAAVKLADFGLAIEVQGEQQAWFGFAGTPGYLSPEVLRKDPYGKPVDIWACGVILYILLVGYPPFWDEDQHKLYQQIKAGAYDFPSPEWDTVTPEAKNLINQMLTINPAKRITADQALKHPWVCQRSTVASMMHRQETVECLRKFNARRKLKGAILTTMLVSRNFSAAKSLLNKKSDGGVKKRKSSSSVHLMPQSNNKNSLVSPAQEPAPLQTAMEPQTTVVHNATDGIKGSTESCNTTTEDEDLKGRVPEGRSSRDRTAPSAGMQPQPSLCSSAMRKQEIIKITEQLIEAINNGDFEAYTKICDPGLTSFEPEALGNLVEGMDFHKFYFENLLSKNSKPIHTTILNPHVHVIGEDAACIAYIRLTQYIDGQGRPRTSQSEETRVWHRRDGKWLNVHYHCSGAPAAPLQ
UniProt Q15131: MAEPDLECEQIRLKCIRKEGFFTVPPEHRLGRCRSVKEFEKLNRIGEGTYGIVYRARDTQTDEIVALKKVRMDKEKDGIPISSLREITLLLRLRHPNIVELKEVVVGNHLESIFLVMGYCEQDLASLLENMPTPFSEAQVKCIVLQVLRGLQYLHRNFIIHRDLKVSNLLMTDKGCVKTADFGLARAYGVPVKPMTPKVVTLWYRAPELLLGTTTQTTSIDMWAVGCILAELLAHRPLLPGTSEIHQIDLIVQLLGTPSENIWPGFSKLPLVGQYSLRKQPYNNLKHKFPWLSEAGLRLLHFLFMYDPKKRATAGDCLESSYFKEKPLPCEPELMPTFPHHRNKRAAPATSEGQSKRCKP
UniProt Q00526: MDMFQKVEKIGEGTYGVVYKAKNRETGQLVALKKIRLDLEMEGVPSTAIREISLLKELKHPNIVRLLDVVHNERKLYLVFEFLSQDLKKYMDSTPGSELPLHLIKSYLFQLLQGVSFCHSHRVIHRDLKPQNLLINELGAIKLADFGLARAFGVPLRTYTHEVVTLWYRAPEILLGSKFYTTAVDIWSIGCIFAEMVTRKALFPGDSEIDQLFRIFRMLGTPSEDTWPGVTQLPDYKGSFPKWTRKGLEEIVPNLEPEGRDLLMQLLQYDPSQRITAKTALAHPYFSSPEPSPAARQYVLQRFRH
UniProt P11802: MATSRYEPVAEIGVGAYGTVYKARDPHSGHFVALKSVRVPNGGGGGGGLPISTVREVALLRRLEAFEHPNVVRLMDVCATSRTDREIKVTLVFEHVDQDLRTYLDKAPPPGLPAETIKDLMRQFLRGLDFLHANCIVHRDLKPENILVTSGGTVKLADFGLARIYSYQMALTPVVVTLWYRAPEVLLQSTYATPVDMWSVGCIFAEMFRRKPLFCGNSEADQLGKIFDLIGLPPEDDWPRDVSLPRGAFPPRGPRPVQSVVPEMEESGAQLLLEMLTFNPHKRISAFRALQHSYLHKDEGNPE
UniProt Q00535, whole entry, looked up: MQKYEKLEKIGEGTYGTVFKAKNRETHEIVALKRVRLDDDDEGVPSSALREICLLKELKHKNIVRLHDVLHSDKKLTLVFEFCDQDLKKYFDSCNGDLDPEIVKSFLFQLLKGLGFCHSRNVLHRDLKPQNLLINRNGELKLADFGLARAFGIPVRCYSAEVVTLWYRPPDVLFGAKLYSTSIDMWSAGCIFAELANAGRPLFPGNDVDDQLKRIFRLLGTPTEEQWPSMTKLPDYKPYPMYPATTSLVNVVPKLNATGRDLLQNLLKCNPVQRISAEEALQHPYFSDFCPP
UniProt Q00534, whole entry: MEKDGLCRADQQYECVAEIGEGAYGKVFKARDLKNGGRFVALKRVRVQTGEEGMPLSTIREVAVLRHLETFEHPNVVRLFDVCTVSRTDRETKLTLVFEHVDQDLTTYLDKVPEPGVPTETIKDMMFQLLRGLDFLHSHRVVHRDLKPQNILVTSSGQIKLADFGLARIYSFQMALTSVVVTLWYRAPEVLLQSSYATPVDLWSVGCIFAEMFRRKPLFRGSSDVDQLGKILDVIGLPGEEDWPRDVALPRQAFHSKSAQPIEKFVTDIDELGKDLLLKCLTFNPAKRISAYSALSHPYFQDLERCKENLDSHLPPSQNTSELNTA

SMILES | kinase-Nluc reporter destabilization hit call [1] | kinase-Nluc reporter destabilization hit call [2] | kinase-Nluc reporter destabilization hit call [3] | kinase-Nluc reporter destabilization hit call [4] | kinase-Nluc reporter destabilization hit call [5] | kinase-Nluc reporter destabilization hit call [6] | kinase-Nluc reporter destabilization hit call [7] | kinase-Nluc reporter destabilization hit call [8] | kinase-Nluc reporter destabilization hit call [9] | kinase-Nluc reporter destabilization hit call [10] | kinase-Nluc reporter destabilization hit call [11] | kinase-Nluc reporter destabilization hit call [12] | kinase-Nluc reporter destabilization hit call [13] | kinase-Nluc reporter destabilization hit call [14] | kinase-Nluc reporter destabilization hit call [15] | kinase-Nluc reporter destabilization hit call [16] | kinase-Nluc reporter destabilization hit call [17] | kinase-Nluc reporter destabilization hit call [18] | kinase-Nluc reporter destabilization hit call [19] | kinase-Nluc reporter destabilization hit call [20]
CCOC(=O)c1c2c3c(cccc3[nH]c1=O)C(=O)c1ccccc1-2 (10 µM) | inactive: 0 | inactive: 0 | inactive: 0 | inactive: 0 | inactive: 0 | inactive: 0 | inactive: 0 | inactive: 0 | inactive: 0 | inactive: 0 | inactive: 0 | inactive: 0 | inactive: 0 | inactive: 0 | inactive: 0 | inactive: 0 | inactive: 0 | inactive: 0 | inactive: 0 | inactive: 0
C=CC(=O)N1CCC(Oc2cc3c(Nc4ccc(Cl)c(Cl)c4F)ncnc3cc2OC)CC1 [Poziotinib] (2.5 µM) | inactive: 0 | inactive: 0 | inactive: 0 | inactive: 0 | inactive: 0 | inactive: 0 | inactive: 0 | inactive: 0 | inactive: 0 | inactive: 0 | inactive: 0 | inactive: 0 | inactive: 0 | inactive: 0 | inactive: 0 | inactive: 0 | inactive: 0 | inactive: 0 | inactive: 0 | inactive: 0
CC(C)C[C@H](NC(=O)[C@H](CCCCN)NC(=O)[C@H](CO)NC(=O)[C@@H](N)CC(C)C)C(N)=O [LSKL, Inhibitor of Thrombospondin (TSP-1) (TFA)] (10 µM) | inactive: 0 | inactive: 0 | inactive: 0 | inactive: 0 | inactive: 0 | inactive: 0 | inactive: 0 | inactive: 0 | inactive: 0 | inactive: 0 | inactive: 0 | inactive: 0 | inactive: 0 | inactive: 0 | inactive: 0 | inactive: 0 | inactive: 0 | inactive: 0 | inactive: 0 | inactive: 0
CC1=C(CC(=O)O)c2cc(F)ccc2/C1=C\c1ccc(C(C)C)cc1 (10 µM) | inactive: 0 | inactive: 0 | inactive: 0 | inactive: 0 | inactive: 0 | inactive: 0 | inactive: 0 | inactive: 0 | inactive: 0 | inactive: 0 | inactive: 0 | inactive: 0 | inactive: 0 | inactive: 0 | inactive: 0 | inactive: 0 | active: 1 | inactive: 0 | inactive: 0 | inactive: 0
Cn1ncc(Cl)c1-c1cc(C(=O)N[C@H](CN)Cc2ccc(F)c(F)c2)sc1Cl (10 µM) | inactive: 0 | inactive: 0 | inactive: 0 | inactive: 0 | inactive: 0 | inactive: 0 | inactive: 0 | inactive: 0 | inactive: 0 | inactive: 0 | inactive: 0 | inactive: 0 | inactive: 0 | inactive: 0 | inactive: 0 | inactive: 0 | inactive: 0 | inactive: 0 | inactive: 0 | inactive: 0
C[C@@H]1CCc2ncc(F)cc2[C@H]2CCCN2c2ccn3ncc(c3n2)C(=O)N1 [Selitrectinib] (10 µM) | inactive: 0 | inactive: 0 | inactive: 0 | inactive: 0 | inactive: 0 | inactive: 0 | inactive: 0 | inactive: 0 | inactive: 0 | inactive: 0 | inactive: 0 | inactive: 0 | inactive: 0 | inactive: 0 | inactive: 0 | inactive: 0 | inactive: 0 | inactive: 0 | inactive: 0 | inactive: 0
CC(C)Oc1ccc(-c2cnc3c(-c4ccnc5ccccc45)cnn3c2)cc1 (10 µM) | inactive: 0 | inactive: 0 | inactive: 0 | inactive: 0 | inactive: 0 | inactive: 0 | inactive: 0 | inactive: 0 | inactive: 0 | inactive: 0 | inactive: 0 | inactive: 0 | inactive: 0 | inactive: 0 | inactive: 0 | inactive: 0 | inactive: 0 | inactive: 0 | inactive: 0 | inactive: 0
CC(C)(C)C(=O)N1N=CC[C@H]1c1ccccc1 (10 µM) | inactive: 0 | inactive: 0 | inactive: 0 | inactive: 0 | inactive: 0 | inactive: 0 | inactive: 0 | inactive: 0 | inactive: 0 | inactive: 0 | inactive: 0 | inactive: 0 | inactive: 0 | inactive: 0 | inactive: 0 | inactive: 0 | inactive: 0 | inactive: 0 | inactive: 0 | inactive: 0
NC(=O)c1ccc(-c2cnn3ccc(NCc4cccnc4)nc23)cc1 (2.5 µM) | inactive: 0 | inactive: 0 | inactive: 0 | inactive: 0 | inactive: 0 | inactive: 0 | inactive: 0 | inactive: 0 | inactive: 0 | inactive: 0 | inactive: 0 | inactive: 0 | inactive: 0 | inactive: 0 | inactive: 0 | inactive: 0 | inactive: 0 | inactive: 0 | inactive: 0 | inactive: 0
Cn1cc(-c2ccc3nnc(C(F)(F)c4ccc5ncccc5c4)n3n2)cn1 (10 µM) | inactive: 0 | inactive: 0 | inactive: 0 | inactive: 0 | inactive: 0 | inactive: 0 | inactive: 0 | inactive: 0 | inactive: 0 | inactive: 0 | inactive: 0 | inactive: 0 | inactive: 0 | inactive: 0 | inactive: 0 | inactive: 0 | inactive: 0 | inactive: 0 | inactive: 0 | inactive: 0
C=C(F)C(=O)N1CCN(c2nc(OC[C@@H]3CCCN3C)nc3c2CCN(c2cccc4cccc(Cl)c24)C3)C[C@@H]1CC#N (2.5 µM) | inactive: 0 | inactive: 0 | inactive: 0 | inactive: 0 | inactive: 0 | inactive: 0 | inactive: 0 | inactive: 0 | inactive: 0 | inactive: 0 | inactive: 0 | inactive: 0 | inactive: 0 | inactive: 0 | inactive: 0 | inactive: 0 | inactive: 0 | inactive: 0 | inactive: 0 | inactive: 0
C[C@@H]1O[C@@H](OC[C@H]2O[C@@H](Oc3cc(O)c4c(c3)O[C@H](c3ccc(O)cc3)CC4=O)[C@H](O)[C@@H](O)[C@@H]2O)[C@H](O)[C@H](O)[C@H]1O [Narirutin] (10 µM) | inactive: 0 | inactive: 0 | inactive: 0 | inactive: 0 | inactive: 0 | inactive: 0 | inactive: 0 | inactive: 0 | inactive: 0 | inactive: 0 | inactive: 0 | inactive: 0 | inactive: 0 | inactive: 0 | inactive: 0 | inactive: 0 | inactive: 0 | inactive: 0 | inactive: 0 | inactive: 0
CC(C)(O)[C@@H]1CC[C@](C)([C@H]2[C@@H](O)C[C@@]3(C)[C@@H]4C[C@H](O[C@@H]5O[C@H](CO)[C@@H](O)[C@H](O)[C@H]5O)[C@H]5C(C)(C)[C@@H](O[C@@H]6OC[C@@H](O)[C@H](O)[C@H]6O[C@@H]6O[C@H](CO)[C@@H](O)[C@H](O)[C@H]6O)CC[C@@]56C[C@@]46CC[C@]23C)O1 [Astragaloside VI] (10 µM) | inactive: 0 | inactive: 0 | inactive: 0 | inactive: 0 | inactive: 0 | inactive: 0 | inactive: 0 | inactive: 0 | inactive: 0 | inactive: 0 | inactive: 0 | inactive: 0 | inactive: 0 | inactive: 0 | inactive: 0 | inactive: 0 | inactive: 0 | inactive: 0 | inactive: 0 | inactive: 0
O=Nc1c(-c2c(O)[nH]c3ccccc23)[nH]c2ccccc12 [Indirubin-3'-monoxime] (2.5 µM) | inactive: 0 | inactive: 0 | inactive: 0 | inactive: 0 | inactive: 0 | inactive: 0 | inactive: 0 | inactive: 0 | inactive: 0 | inactive: 0 | inactive: 0 | inactive: 0 | inactive: 0 | inactive: 0 | inactive: 0 | inactive: 0 | inactive: 0 | inactive: 0 | inactive: 0 | inactive: 0
O=C(Nc1ccc(Cl)c(Cl)c1)Nc1ccc2nnsc2c1 (10 µM) | inactive: 0 | inactive: 0 | inactive: 0 | inactive: 0 | inactive: 0 | inactive: 0 | inactive: 0 | inactive: 0 | inactive: 0 | inactive: 0 | inactive: 0 | inactive: 0 | inactive: 0 | inactive: 0 | inactive: 0 | inactive: 0 | inactive: 0 | inactive: 0 | inactive: 0 | inactive: 0
COc1ccc(CNc2nc(N(CCO)CCO)nc3c2ncn3C(C)C)cc1 (2.5 µM) | inactive: 0 | inactive: 0 | inactive: 0 | inactive: 0 | inactive: 0 | inactive: 0 | inactive: 0 | inactive: 0 | inactive: 0 | inactive: 0 | inactive: 0 | inactive: 0 | inactive: 0 | inactive: 0 | inactive: 0 | inactive: 0 | inactive: 0 | inactive: 0 | inactive: 0 | inactive: 0
c1cc(-c2cnn3cc(-c4ccc(N5CCNCC5)cc4)cnc23)c2cccnc2c1 (2.5 µM) | inactive: 0 | inactive: 0 | inactive: 0 | inactive: 0 | inactive: 0 | inactive: 0 | inactive: 0 | inactive: 0 | inactive: 0 | inactive: 0 | inactive: 0 | inactive: 0 | inactive: 0 | inactive: 0 | inactive: 0 | inactive: 0 | inactive: 0 | inactive: 0 | inactive: 0 | inactive: 0
CCCCCCCC/C=C\CCCCCCCC(=O)NCC(=O)O [N-Oleoyl glycine] (10 µM) | inactive: 0 | inactive: 0 | inactive: 0 | inactive: 0 | inactive: 0 | inactive: 0 | inactive: 0 | inactive: 0 | inactive: 0 | inactive: 0 | inactive: 0 | inactive: 0 | inactive: 0 | inactive: 0 | inactive: 0 | inactive: 0 | inactive: 0 | inactive: 0 | inactive: 0 | inactive: 0

Two successive records already listed, quoted:
SMILES | kinase-Nluc reporter destabilization hit call [1] | kinase-Nluc reporter destabilization hit call [2] | kinase-Nluc reporter destabilization hit call [3] | kinase-Nluc reporter destabilization hit call [4] | kinase-Nluc reporter destabilization hit call [5] | kinase-Nluc reporter destabilization hit call [6] | kinase-Nluc reporter destabilization hit call [7] | kinase-Nluc reporter destabilization hit call [8] | kinase-Nluc reporter destabilization hit call [9] | kinase-Nluc reporter destabilization hit call [10] | kinase-Nluc reporter destabilization hit call [11] | kinase-Nluc reporter destabilization hit call [12] | kinase-Nluc reporter destabilization hit call [13] | kinase-Nluc reporter destabilization hit call [14] | kinase-Nluc reporter destabilization hit call [15] | kinase-Nluc reporter destabilization hit call [16] | kinase-Nluc reporter destabilization hit call [17] | kinase-Nluc reporter destabilization hit call [18] | kinase-Nluc reporter destabilization hit call [19] | kinase-Nluc reporter destabilization hit call [20]
Cn1ncc(Cl)c1-c1cc(C(=O)N[C@H](CN)Cc2ccc(F)c(F)c2)sc1Cl (10 µM) | inactive: 0 | inactive: 0 | inactive: 0 | inactive: 0 | inactive: 0 | inactive: 0 | inactive: 0 | inactive: 0 | inactive: 0 | inactive: 0 | inactive: 0 | inactive: 0 | inactive: 0 | inactive: 0 | inactive: 0 | inactive: 0 | inactive: 0 | inactive: 0 | inactive: 0 | inactive: 0
C[C@@H]1CCc2ncc(F)cc2[C@H]2CCCN2c2ccn3ncc(c3n2)C(=O)N1 [Selitrectinib] (10 µM) | inactive: 0 | inactive: 0 | inactive: 0 | inactive: 0 | inactive: 0 | inactive: 0 | inactive: 0 | inactive: 0 | inactive: 0 | inactive: 0 | inactive: 0 | inactive: 0 | inactive: 0 | inactive: 0 | inactive: 0 | inactive: 0 | inactive: 0 | inactive: 0 | inactive: 0 | inactive: 0

— the supplement of paper PMC12823440, “Inhibitors supercharge kinase turnover through native proteolytic circuits” (Nature, 2025)
